Taken from: PubChem BioAssay AID1259259 (Sanger Institute, 2017)
Assay: 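Synthetic lethal kinase partners of anchor drugs in colorectal cancer cells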 (primary screen). System: SW1463 human colorectal cancer cells. Reagent: siRNA pool against human genes. Treatment: DMSO vehicle, or one anchor drug: BYL719 at 1 µM, cetuximab at 5 µg/ml, or trametinib at 10 nM. Measurement: 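Viability relative to control pool 2 (non-targeting) averaged over replicates, robust z-score for knock-down with no drug, and for each anchor drug the mean synergy score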. Scale: robust z-score, knock-down alone: higher = more viable cells after knock-down. Rule for the call: 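Knock-down called essential when its robust z-score without drug falls below -3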. Calls: active = essential: viability loss from knock-down alone; inactive = no change from knock-down alone.
The whole screen tested 794 reagents; below is an unselected part. In the full data, 9 (1.1%) are marked active. 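Calls rest on knock-down alone, not drug synergy; viability values seem capped at 1.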 Further read-outs or replicates are left out here. The record does not give: the amount of reagent, the time to read-out.

PEAK1 (pseudopodium enriched atypical kinase 1)
- robust z-score, knock-down alone: -0.981
- Call: inactive

COMMD3 (COMM domain containing 3)
- robust z-score, knock-down alone: 0.821
- Call: inactive

MAP2K1 (mitogen-activated protein kinase kinase 1)
- robust z-score, knock-down alone: -0.0274
- Call: inactive

LATS1 (large tumor suppressor kinase 1)
- robust z-score, knock-down alone: 1.13
- Call: inactive

BRD4 (bromodomain containing 4)
- robust z-score, knock-down alone: -0.169
- Call: inactive

TSSK3 (testis specific serine kinase 3)
- robust z-score, knock-down alone: -0.422
- Call: inactive

PIM3 (Pim-3 proto-oncogene, serine/threonine kinase)
- robust z-score, knock-down alone: -0.139
- Call: inactive

SYK (spleen associated tyrosine kinase)
- robust z-score, knock-down alone: -3.67
- Call: active

PKDCC (protein kinase domain containing, cytoplasmic)
- robust z-score, knock-down alone: 0.769
- Call: inactive

PCBP1 (poly(rC) binding protein 1)
- robust z-score, knock-down alone: -0.241
- Call: inactive

CAMKK2 (calcium/calmodulin dependent protein kinase kinase 2)
- robust z-score, knock-down alone: 0.555
- Call: inactive

PKN2 (protein kinase N2)
- robust z-score, knock-down alone: -1.49
- Call: inactive

MST1R (macrophage stimulating 1 receptor)
- robust z-score, knock-down alone: -0.54
- Call: inactive

PFKFB2 (6-phosphofructo-2-kinase/fructose-2,6-biphosphatase 2)
- robust z-score, knock-down alone: 1.01
- Call: inactive

MUSK (muscle associated receptor tyrosine kinase)
- robust z-score, knock-down alone: -1.11
- Call: inactive

NME6 (NME/NM23 nucleoside diphosphate kinase 6)
- robust z-score, knock-down alone: -1.44
- Call: inactive

GTF2H1 (general transcription factor IIH subunit 1)
- robust z-score, knock-down alone: -0.183
- Call: inactive

RSKR (ribosomal protein S6 kinase related)
- robust z-score, knock-down alone: -0.552
- Call: inactive

FASTK (Fas activated serine/threonine kinase)
- robust z-score, knock-down alone: -1.27
- Call: inactive

ETNK1 (ethanolamine kinase 1)
- robust z-score, knock-down alone: 0.00349
- Call: inactive

THNSL1 (threonine synthase like 1)
- robust z-score, knock-down alone: 1.13
- Call: inactive

ACSL6 (acyl-CoA synthetase long chain family member 6)
- robust z-score, knock-down alone: 1.05
- Call: inactive

NAGK (N-acetylglucosamine kinase)
- robust z-score, knock-down alone: -0.0252
- Call: inactive

DDR2 (discoidin domain receptor tyrosine kinase 2)
- robust z-score, knock-down alone: 0.422
- Call: inactive

MAPK1 (mitogen-activated protein kinase 1)
- robust z-score, knock-down alone: -0.252
- Call: inactive

ATP23
- robust z-score, knock-down alone: 1.13
- Call: inactive

ABL1 (ABL proto-oncogene 1, non-receptor tyrosine kinase)
- robust z-score, knock-down alone: -1.6
- Call: inactive

MAP4K4 (mitogen-activated protein kinase kinase kinase kinase 4)
- robust z-score, knock-down alone: -1.72
- Call: inactive

Ordered by “robust z-score, knock-down alone” (lowest first): some entries from above
PKN2 (protein kinase N2)
- robust z-score, knock-down alone: -1.49
- Call: inactive

MUSK (muscle associated receptor tyrosine kinase)
- robust z-score, knock-down alone: -1.11
- Call: inactive

MST1R (macrophage stimulating 1 receptor)
- robust z-score, knock-down alone: -0.54
- Call: inactive

CAMKK2 (calcium/calmodulin dependent protein kinase kinase 2)
- robust z-score, knock-down alone: 0.555
- Call: inactive

PFKFB2 (6-phosphofructo-2-kinase/fructose-2,6-biphosphatase 2)
- robust z-score, knock-down alone: 1.01
- Call: inactive
